# According to publication PMC4411673:
# No constants are given. Whether binding was seen depends on the method and setting. For some of these results: Binding seen in cells or lysates may run through a third protein. Some results given as binding are weak or reduced against the parent protein; the word gives no strength. For some of these results: Where a sequence is shown, tags or fusion partners need not be part of it.
# T1: Flag-Pirh2 (human) (UniProt Q96PM5)
# T1 sequence: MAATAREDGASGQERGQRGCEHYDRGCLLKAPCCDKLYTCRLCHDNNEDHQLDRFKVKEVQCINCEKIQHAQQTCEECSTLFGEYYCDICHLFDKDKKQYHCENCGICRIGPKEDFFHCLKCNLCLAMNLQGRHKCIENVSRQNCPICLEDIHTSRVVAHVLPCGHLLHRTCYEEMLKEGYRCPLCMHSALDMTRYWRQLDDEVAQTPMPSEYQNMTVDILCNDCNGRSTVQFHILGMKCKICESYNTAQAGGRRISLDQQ
# T2: Prototype foamy virus (PFV) transactivator Tas, full length, in pGBKT7 (two-hybrid bait) (prototype foamy virus (PFV)) (UniProt P14353)
# T2 sequence: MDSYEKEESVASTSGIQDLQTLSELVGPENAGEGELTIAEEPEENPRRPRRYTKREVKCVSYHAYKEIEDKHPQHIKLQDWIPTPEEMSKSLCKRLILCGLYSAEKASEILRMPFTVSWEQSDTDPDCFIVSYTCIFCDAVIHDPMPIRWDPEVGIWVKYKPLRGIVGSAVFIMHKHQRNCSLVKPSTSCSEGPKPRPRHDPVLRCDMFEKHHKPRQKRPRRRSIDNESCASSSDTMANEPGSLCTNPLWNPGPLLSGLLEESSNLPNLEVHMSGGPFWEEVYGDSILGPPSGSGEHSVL
# T3: GST-Tas (prototype foamy virus (PFV)) (UniProt P14353)
# T3 sequence: T2 sequence
# T4: myc-Tas (prototype foamy virus (PFV)) (UniProt P14353)
# T4 sequence: T2 sequence
# B1: myc-Tas (protein, UniProt P14353 1-300)
# chain: T2 sequence
# B2: Human p53-induced RING-H2 protein (Pirh2), full-length clone from the human 293T cDNA library (two-hybrid prey) (protein, UniProt Q96PM5 1-261)
# chain: T1 sequence
# B3: MBP-Pirh2 (protein, UniProt Q96PM5 1-261)
# chain: T1 sequence
# B4: Flag-Pirh2 (protein, UniProt Q96PM5 1-261)
# chain: T1 sequence
# How the values were obtained:
# [1] = target: T1, Flag-Pirh2 (human); assay: co-IP
# [2] = target: T2, Prototype foamy virus (PFV) transactivator Tas, full length, in pGBKT7 (two-hybrid bait) (prototype foamy virus (PFV)); assay: two-hybrid
# [3] = target: T3, GST-Tas (prototype foamy virus (PFV)); assay: pull-down; both purified
# [4] = target: T4, myc-Tas (prototype foamy virus (PFV)); assay: co-IP
binder,measurement,setting,value
B1,binding,[1],binds
B2,binding,[2],binds
B3,binding,[3],binds
B4,binding,[4],binds
